Publication PMC8113450
No constants are given. Whether binding was seen depends on the method and setting.

Target: murine Elp2 (mElp2), wild type, purified alone (Mus musculus) (UniProt Q91WG4)
Experiment: SEC; gel filtration of purified Elp2 on S200 Increase 10/300 GL; 20 mM HEPES, 300 mM NaCl, 5 mM DTT, pH 8.0; both purified

B1: murine Elp2 (mElp2), wild type, purified alone (protein, UniProt Q91WG4 1-831)
chain: MVSSVLEVSHVFCCPNRVRGALSWNTGPGGLLAFGTSCSVVLYDPQKKVVITNLNGHTARVNCLQWIRTEDGSPSNELVSGGSDNRVIHWELENNQVLKSVRLQGHEGPVCAVHAIYQSGPSEGEQHALIASAASDSTVRIWSKKGSEVKYLQTLSFRDGFVLSVCLAILPGTNVPVLACGDDDCRIHLYIQQDDQFQKALSLCGHEDWIRGVEWATFGRDLFLASCSQDCLIRIWRLYMKPASFETKDGSLRLKENTFTIKDGGVRTTVAVTLETVLAGHENWVNAVHWQPSFYKDGVLQQPVRLLSASMDKTMILWAPDEESGVWLEQVRVGEVGGNTLGFYDCQFGENGTMIIAHAFHGALHLWKQSTVNPRQWAPEIVISGHFDGVQDLMWDPEGEFIITTSTDQTTRLFAPWKKKDQKDRSQVTWHEIARPQIHGYNIKCLAMIDRFQFVSGADEKVLRVFSAPRNFVENFSVISRQSLSHMLCDDQDLPEGATVPALGLSNKALFQGDIASQPFEEDELISPAFGSPQVTFQPAVLNEPPTEDHLLQNTLWPEIQKLYGHGYEIVCVACNNSKTLLASACKASQKEHAAIILWSTASWKQVQSLAFHTLTVTQMTFSPDDKFLLAVSRDRTWSLWKRQDATSSEFDPFFSLFAFTNKITSVHSRIIWSCDWSPDNKYFFTGSRDKKVVVWGECKSSHNPMEHPIRPCSSILDVGSSVTAVSVCPVLNPAQRYIVAIGLESGKICIYSWNKTNQEINDWTSCVETNPSQSHSLGIRRLCWKSCSDDDDDDDDDDTEQSEEGPEWLHFASCGEDHTVKIYRVNRRAL
binding: no binding
